Assay results as given in US20170174789A1.
No constants are given. Whether binding was seen depends on the method and setting. Some results given as binding are weak or reduced against the parent protein; the word gives no strength.

Experiments:
[1] = biological target: rTie2-hFc (rat); assay: SPR Biacore 25C
[2] = biological target: mTie2-hFc (mouse); assay: SPR Biacore 25C
[3] = biological target: hTie1-hFc (human); assay: Luminex bead binding

binding [1]: binds | binding [2]: binds
B1: H1H2332B (antibody, V domains shown)
VH: QVQLQESGPGLVKPSETLSLTCTVSGASISSYYWTWFRQPPGQGLEWIGYIYYSGSTNYNPSLKSRVTISVDTSMNQFSLKLTSVTAADTAVYYCARQGGYTSSLFDYWGQGTLVTVSS
VL: DIQMTQSPSSLSASVGDRVTITCRASQSISSYLNWYQQKPGKAPKLLIYVVSSLQSGVPSRFSGSGSGTDFTLTISSLQPEDFATYYCQQSYSIPWTFGQGTKVEIK
binding [3]: no binding (tested: MFI >500 = significant binding)
